In patent publication US20130131018A1, “SUBSTITUTED ISOQUINOLINES AND THEIR USE AS TUBULIN POLYMERIZATION INHIBITORS” (Exonhit S.A., priority 2010, published 2013):
Where two headings read alike, the source gives them in different places.

Legend:
Assay type in all cases: cell-based
HUVEC = assay: Pre-established vessels disruption (capillary tubes on Matrigel); details: Homo sapiens, HUVEC tubes formed 5 hours, then compounds overnight
Method: To explore the effect of the compounds on pre-established vasculature, twenty thousand cells (HUVEC) were seeded and incubated over Matrigel for 5 hours to allow the capillary tubes to form. Then, compounds were added and incubated overnight. The disappearance of existing vasculature was monitored with fluorescent microscopy.

[1] = test system: Endothelial cells (HUVEC); assay: Neovessels formation inhibition (capillary tube formation on Matrigel); details: Homo sapiens
Method: The capability of compounds to inhibit the formation of capillaries was evaluated in vitro. Twenty thousand Endothelial cells (HUVEC) were placed on a Matrigel matrix and allowed to form capillary tubes in the presence or absence of the compounds overnight. The cells were stained with calcein AM, and the effect of the compounds on capillary tube formation was assessed using an inverted fluorescent microscope (Nikon). The reference compound used in this assay AVE-8063 is 3-amino-deoxycombretastatin A-4.

K562 cell line = assay: MTT assay: cytotoxicity against the K562 cell line; details: Homo sapiens, K562 cells, 72 h, growth inhibition
Method: Assessment of Cell Viability via MTT Assay: Cytotoxicity of compounds against the K562 cell line was assessed using the [3-(4,5-dimethylthiazol-2-yl)-2,5-diphenyl tetrazolium bromide] (MTT) assay. Fifteen thousand tumor cells were seeded into wells of flat-bottomed 96-well plates. An amount of 2 μL of a dilution series of each compound dissolved in DMSO was added to 198 μL of appropriate growth medium at three replicates per concentration and the plates were incubated in a 5% CO2 incubator at 37° C. After 72 h, the number of metabolically active cells was determined by MTT assay. Absorbance of each well was measured at 550 nm on a Tecan Sunrise reader. Dose-response curves for growth inhibition were generated as a percentage of untreated control. IC50 was determined by nonlinear regression (Prism, Graph Pad Software, Inc.).

Q: How did the IC50 (HUVEC; read-out: Pre-established Vessels Disruption Number of Branch Junctions IC50) turn out when COc1cc2c(c(OC)c1OC)-c1ccc(OC)c(=O)cc1[C@@H](NC(C)=O)CC2 [Colchicine, reference compound] was run?
A: Its IC50 is 4.93 nM.

Q: What about the IC50 (HUVEC; read-out: Pre-established Vessels Disruption Total Tubule Length IC50) of the same compound?
A: Its IC50 is 12.7 nM.

Q: What about the IC50 ([1]; read-out: Neovessels Formation Inhibition Number of Branch Junctions IC50 (nM)) of the same compound?
A: Its IC50 is 15.5 nM.

Q: And the IC50 ([1]; read-out: Neovessels Formation Inhibition Total Tubule Length IC50 (nM))?
A: Its IC50 is 22.1 nM.

Q: And the IC50 (K562 cell line)?
A: Its IC50 is 8.52 nM.
